Assay results: US10351594B2 (Shanghai Lumosa Therapeutics Co., Ltd., priority 2013, dated 2019)

How the values were obtained:
[1] = general procedure: solution-phase peptide synthesis; conditions: coupling step
peptide synthesis = conditions: late stage modification step

Row | Substance | step yield [1] [%] | step yield (peptide synthesis) [%]
1 | 3S-6,7-dihydroxy-1,1-dimethyl-1,2,3,4-tetrahydro-isoquinoline-3-acyl-Lys (Boc-Pro-Ala-Ala)-OBzl | 38 | –
2 | 3S-6,7-dihydroxy-1,1-dimethyl-1,2,3,4-tetrahydro-isoquinoline-3-acyl-Lys (Boc-Pro-Ala-Phe)-OBzl | 36 | –
3 | 3S-6,7-dihydroxy-1,1-dimethyl-1,2,3,4-tetrahydro-isoquinoline-3-acyl-Lys (Boc-Pro-Ala-Pro)-OBzl | 37 | –
4 | 3S-6,7-dihydroxy-1,1-dimethyl-1,2,3,4-tetrahydro-isoquinoline-3-acyl-Lys (Boc-Pro-Ala-Trp)-OBzl | 35 | –
5 | 3S-6,7-dihydroxy-1,1-dimethyl-1,2,3,4-tetrahydro-isoquinoline-3-acyl-Lys (Boc-Pro-Ala-Tyr)-OBzl | 31 | –
6 | 3S-6,7-dihydroxy-1,1-dimethyl-1,2,3,4-tetrahydro-isoquinoline-3-acyl-Lys (Boc-Pro-Ala-Val)-OBzl | 37 | –
7 | 3S-6,7-dihydroxy-1,1-dimethyl-1,2,3,4-tetrahydro-isoquinoline-3-acyl-Lys(Boc-Pro-Ala-Asn)-OBzl | 38 | –
8 | 3S-6,7-dihydroxy-1,1-dimethyl-1,2,3,4-tetrahydro-isoquinoline-3-acyl-Lys(Boc-Pro-Ala-Gln)-OBzl | 39 | –
9 | 3S-6,7-dihydroxy-1,1-dimethyl-1,2,3,4-tetrahydro-isoquinoline-3-acyl-Lys(Boc-Pro-Ala-Gly)-OBzl | 39 | –
10 | 3S-6,7-dihydroxy-1,1-dimethyl-1,2,3,4-tetrahydro-isoquinoline-3-acyl-Lys(Boc-Pro-Ala-Ile)-OBzl | 37 | –
11 | 3S-6,7-dihydroxy-1,1-dimethyl-1,2,3,4-tetrahydro-isoquinoline-3-acyl-Lys(Boc-Pro-Ala-Leu)-OBzl | 36 | –
12 | 3S-6,7-dihydroxy-1,1-dimethyl-1,2,3,4-tetrahydro-isoquinoline-3-acyl-Lys(Boc-Pro-Ala-Ser)-OBzl | 29 | –
13 | 3S-6,7-dihydroxy-1,1-dimethyl-1,2,3,4-tetrahydro-isoquinoline-3-acyl-Lys(Boc-Pro-Ala-Thr)-OBzl | 30 | –
14 | 3S-6,7-dihydroxy-1,1-dimethyl-1,2,3,4-tetrahydro-isoquinoline-3-acyl-Lys(Pro-Ala-Ala) | – | 78
15 | 3S-6,7-dihydroxy-1,1-dimethyl-1,2,3,4-tetrahydro-isoquinoline-3-acyl-Lys(Pro-Ala-Asn) | – | 78
16 | 3S-6,7-dihydroxy-1,1-dimethyl-1,2,3,4-tetrahydro-isoquinoline-3-acyl-Lys(Pro-Ala-Asp) | – | 83

Row | Substance | step yield [1] [%] | step yield (peptide synthesis) [%]
17 | 3S-6,7-dihydroxy-1,1-dimethyl-1,2,3,4-tetrahydro-isoquinoline-3-acyl-Lys(Pro-Ala-Gln) | – | 79
18 | 3S-6,7-dihydroxy-1,1-dimethyl-1,2,3,4-tetrahydro-isoquinoline-3-acyl-Lys(Pro-Ala-Glu) | – | 82
19 | 3S-6,7-dihydroxy-1,1-dimethyl-1,2,3,4-tetrahydro-isoquinoline-3-acyl-Lys(Pro-Ala-Gly) | – | 85
20 | 3S-6,7-dihydroxy-1,1-dimethyl-1,2,3,4-tetrahydro-isoquinoline-3-acyl-Lys(Pro-Ala-Ile) | – | 78
21 | 3S-6,7-dihydroxy-1,1-dimethyl-1,2,3,4-tetrahydro-isoquinoline-3-acyl-Lys(Pro-Ala-Leu) | – | 77
22 | 3S-6,7-dihydroxy-1,1-dimethyl-1,2,3,4-tetrahydro-isoquinoline-3-acyl-Lys(Pro-Ala-Lys) | – | 75
23 | 3S-6,7-dihydroxy-1,1-dimethyl-1,2,3,4-tetrahydro-isoquinoline-3-acyl-Lys(Pro-Ala-Phe) | – | 78
24 | 3S-6,7-dihydroxy-1,1-dimethyl-1,2,3,4-tetrahydro-isoquinoline-3-acyl-Lys(Pro-Ala-Pro) | – | 78
25 | 3S-6,7-dihydroxy-1,1-dimethyl-1,2,3,4-tetrahydro-isoquinoline-3-acyl-Lys(Pro-Ala-Ser) | – | 79
26 | 3S-6,7-dihydroxy-1,1-dimethyl-1,2,3,4-tetrahydro-isoquinoline-3-acyl-Lys(Pro-Ala-Thr) | – | 76
27 | 3S-6,7-dihydroxy-1,1-dimethyl-1,2,3,4-tetrahydro-isoquinoline-3-acyl-Lys(Pro-Ala-Trp) | – | 76
28 | 3S-6,7-dihydroxy-1,1-dimethyl-1,2,3,4-tetrahydro-isoquinoline-3-acyl-Lys(Pro-Ala-Tyr) | – | 74
29 | 3S-6,7-dihydroxy-1,1-dimethyl-1,2,3,4-tetrahydro-isoquinoline-3-acyl-Lys(Pro-Ala-Val) | – | 81
30 | 3S-6,7-dihydroxy-1,1-dimethyl-1,2,3,4-tetrahydro-isoquinoline-3-acyl-Lys[Boc-Pro-Ala-Asp(OBzl)]-OBzl | 35 | –
31 | 3S-6,7-dihydroxy-1,1-dimethyl-1,2,3,4-tetrahydro-isoquinoline-3-acyl-Lys[Boc-Pro-Ala-Glu(OBzl)]-OBzl | 38 | –
32 | 3S-6,7-dihydroxy-1,1-dimethyl-1,2,3,4-tetrahydro-isoquinoline-3-acyl-Lys[Boc-Pro-Ala-Lys(Z)]-OBzl | 30 | –
